One series deals with MDA-MB-231. Briefly: Antiproliferative MTT assay, MDA-MB-231 breast cancer cells. The format is cell-based, human. Conditions: SI calculated as IC50 (184B5)/ IC50 (MDA-MB-231). How it is done:
(§1) The antiproliferative activities of the cinnamyl and benzodioxyl derivatives were assessed against six human cell lines of three different types of cancer (colon, lung, and breast) using the 3-(4,5-dimethylthiazol-2-yl)-2,5-diphenyltetrazolium bromide (MTT) assay at seven concentrations for 48 h. The results are expressed as the IC50 values and are outlined in Table 1.
(§2) The cell lines were obtained from the American Type Culture Collection (ATCC). All the cancer cell lines (HT-29, HCT-116, H1299, HTB-54, MDA-MB-231 and MCF-7) and the nontumorigenic cells (184B5) were maintained in RPMI 1640 medium (Gibco), supplemented with 10% fetal bovine serum (FBS; Gibco) and 1% antibiotics (10.00 units/mL penicillin and 10.00 mg/mL streptomycin; Gibco). Cells were preserved in tissue culture flasks at 37 °C and 5% CO2. Culture medium was replaced every three days.
(§3) The cytotoxic effect of each compound was initially tested at seven different concentrations ranging between 0.5 and 100 µM in the cell lines mentioned above. The cells were seeded (1 × 10^4 cells per well) in 96-well plates and incubated at 37 °C and 5% CO2 for 24 h. After attachment, cells were treated with either dimethyl sulfoxide (DMSO) or increasing concentrations of the corresponding selenocompound for 48 h. The effect of the compounds on cell viability was determined by the MTT assay. In brief, 20 µL of MTT (5 mg/mL) was added to each well 2.5 h prior to experiment termination. At the end of the incubation, the medium was removed, and the formazan crystals were dissolved in 50 µL of DMSO. Absorbance was measured at 550 nm on a microplate reader. IC50 values were calculated using OriginPro 8.5.1. software by nonlinear curve fitting. Selectivity indexes were calculated as the ratio of the IC50 values determined for the nonmalignant and the tumoral cells in the breast cell lines (IC50 (184B5)/IC50 (MDA-MB-231) and IC50 (184B5)/IC50 (MCF-7)). Data were obtained from at least three independent experiments performed in triplicates.

The next series relates to MCF-7. The experiment in a line: Antiproliferative MTT assay, MCF-7 breast cancer cells. The format is cell-based, human. Conditions: SI calculated as IC50 (184B5)/ IC50 (MCF-7). How it is done:
as §1, §2, §3

For the compound `N#C[Se]C/C=C/c1ccccc1` [Compound 1a, (E)-(3-selenocyanatoprop-1-en-1-yl)benzene], the SI a with MDA-MB-231 is 0.8. The SI b in the series on MCF-7 was 1.0.
With `O=C(CC[Se]CC=Cc1ccccc1)[c-]1cccc1.[Fe+2].c1cc[cH-]c1` [Compound 1c, 3-(Cinnamylselanyl)-1-ferrocenylpropan-1-one], in the series on MDA-MB-231, the SI a was 0.8. Also, in the series on MCF-7, the SI b is 1.3.
Regarding `N#C[Se]Cc1ccc2c(c1)OCO2` [Compound 2a, 5-(Selenocyanatomethyl)benzo[d][1,3]dioxole], in the series with MDA-MB-231, the SI a was 1.1. Also, the SI b in the series on MCF-7 is reported as 0.8.
For the compound `O=C(CC[Se]Cc1ccc2c(c1)OCO2)[c-]1cccc1.[Fe+2].c1cc[cH-]c1` [Compound 2c, 3-((Benzo[d][1,3]dioxol-5-ylmethyl)selanyl)-1-ferrocenylpropan-1-one], the SI a with MDA-MB-231 is recorded as 1.6. For the same compound, the SI b in the series with MCF-7 was 3.4.

The values above are taken from article PMC9656702, “Unveiling a New Selenocyanate as a Multitarget Candidate with Anticancer, Antileishmanial and Antibacterial Potential” (Molecules, 2022).
